Laboratory results as given in PubChem BioAssay AID2685 (National Center for Advancing Translational Sciences (NCATS), 2010).
This is one part of the list. Shown are side measurements of this screen, not its main read-out; they come without a call. Compounds called inactive in the main read-out are mostly missing here. The note in brackets gives the kind of curve behind each potency; many fits are weak.

Assay: qHTS Assay for Lipid Storage Modulators in Drosophila S3 Cells;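 for cell number change: cells counted by Cell Tracker Red CMTPX staining in the red channel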
Details: BODIPY lipid droplet fluorescence, 18-24 h; for cell number change: measured here: cell count max response, cells fed with added oleic acid
Method in brief: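 Drosophila S3 cells got compounds at several concentrations plus oleic acid (400 uM solution). Laser-scanning cytometry with 488 nm excitation read lipid droplets at 500-530 nm and cells at 575-640 nm. Percent activity was relative to 20 uM Triacsin C.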

[1] = measured here: cell number channel AC50, cells fed with added oleic acid
[2] = measured here: lipid fluorescence (Fed channel) AC50, cells fed with added oleic acid

Structure (SMILES)	AC50 [1]	AC50 [2]	cell number change [%]
O=C(COC(=O)c1ccc(Cl)c(S(=O)(=O)N2CCc3ccccc3C2)c1)Nc1ncc(Cl)cc1Cl	0.58 µM [falling, single point]	13 µM [rising, partial curve]	
N#CC1C(C#N)N2CCCN2C1c1ccc(Br)cc1 (configuration not stated)		6.51 µM [falling, single point]	-3.25
CC(=O)c1c(N2CCN(C(=O)C3CCCO3)CC2)nc(=S)n(-c2ccccc2)c1C (configuration not stated)			6.72
C/C(=N\Nc1ccc(Cl)cc1)c1c(O)cc(C)oc1=O	6.51 µM [rising, single point]		
COc1ccc(S(=O)(=O)N(C)c2ccc(C(=O)Nc3cccnc3)cc2)cc1			-23.8
Cc1ccccc1C(=O)NC(=S)NCc1ccccc1		29.1 µM [rising, single point]	10.2
Oc1ccc(/C=N/Nc2ccnc3cc(Cl)ccc23)c(O)c1		32.6 µM [falling, partial curve]	
O=S(=O)(Nc1ccc(-n2cnnn2)cc1)c1cccc(F)c1			-3.61
C#CCOCCOCCOCCNc1nc(N2CCN(C(=O)[C@H]([C@@H](C)O)n3cc(CCCCN)nn3)CC2)nc(N2CCN(C(=O)[C@H]([C@@H](C)CC)n3cc(CCCN=C(N)N)nn3)CC2)n1		6.51 µM [falling, single point]	0.776
COc1ccc(C(=O)C2CCN(S(=O)(=O)c3ccc4c(c3)OCCO4)CC2)cc1		0.00517 µM [falling, full curve, poor fit]	18.2
O=C(O)c1ccccc1NN=C1CCCCC1		1.16 µM [falling, full curve, poor fit]	-0.493
O=C1c2cccc3cc([N+](=O)[O-])cc(c23)C(=O)N1CCN1CCCC1	3.66 µM [falling, partial curve]	6.51 µM [falling, full curve]	-53.3
O=C(Cc1ccc(F)cc1)OCC(=O)c1cc2ccccc2o1			3.61
CC1=CC(c2ccccc2)n2nc(N3C(=O)c4ccccc4C3=O)nc2N1 (configuration not stated)	23.1 µM [falling, partial curve]	23.1 µM [falling, partial curve]	-146
COc1ccc2cc(C(C)C(=O)N3CCC(C(N)=O)CC3)ccc2c1 (configuration not stated)		29.1 µM [rising, partial curve]	3.15
CCc1cc(C(=O)Nc2ccc(S(=O)(=O)NC3=NCCCCC3)cc2)sc1C		16.4 µM [rising, single point]	-15.8
Cc1nnc(NC(=O)C(C)Sc2nnc(-c3ccco3)n2C)s1 (configuration not stated)			8.7
Cc1csc(NC(=O)CSC2=NCCS2)n1		2.06 µM [rising, partial curve]	13.6
O=c1[nH]c(/C=C2\C=Nc3ccccc32)c(O)n1Cc1ccccc1F		5.8 µM [falling, full curve]	-33.6
Cc1ccc(C(=O)OC(C)C(=O)Nc2ccc(S(N)(=O)=O)cc2)cc1S(=O)(=O)N1CCOCC1 (configuration not stated)	4.11 µM [rising, single point]		
Cc1[nH]cnc1CSCCN	20.6 µM [rising, partial curve, poor fit]	6.51 µM [falling, single point]	43.3

Look-ups from the list.
Value of N#CC1C(C#N)N2CCCN2C1c1ccc(Br)cc1 (configuration not stated) under AC50 [2]: 6.51 µM [falling, single point]
Value of Oc1ccc(/C=N/Nc2ccnc3cc(Cl)ccc23)c(O)c1 under AC50 [2]: 32.6 µM [falling, partial curve]

Next structures.

Structure (SMILES)	AC50 [1]	AC50 [2]	cell number change [%]
O=C(COC(=O)c1cccc(S(=O)(=O)N2CCN(c3ccccc3)CC2)c1)NCC1CCCO1 (configuration not stated)		32.6 µM [falling, single point]	-18
C/C(=N/Nc1nc(-c2ccc(Cl)cc2)cs1)c1cccs1		4.11 µM [falling, partial curve]	3.64
O=C(NCCN1CCN(c2ccccc2F)CC1)C1CC(=O)N(C2CCCC2)C1 (configuration not stated)		0.461 µM [rising, single point]	10.9
Cc1ccc(CSc2[nH]c(=O)ncc2C)cc1		29.1 µM [rising, single point]	10.4
CCOc1ccc(C(=O)N(Cc2ccc(N(C)C)cc2)C2CCS(=O)(=O)C2)cc1 (configuration not stated)	0.461 µM [rising, single point]	0.651 µM [rising, single point]	237
Cc1cccc(C(=O)NCCNC(=O)c2cccc(C)c2)c1	7.31 µM [rising, partial curve, poor fit]		13.6
Cc1[nH]n(-c2ccccc2)c(=O)c1C(C[N+](=O)[O-])c1ccc(Br)cc1 (configuration not stated)		0.731 µM [falling, single point]	0.563
CCN(CC)S(=O)(=O)c1ccc2c(c1)c(=O)c(C(=O)N1CCN(c3ccccn3)CC1)cn2C		0.0517 µM [rising, full curve, poor fit]	17
COc1cccc(Nc2nn3c(=O)c4ccccc4nc3s2)c1	7.31 µM [falling, single point]		-39.5
CC1(C)NC(=O)N(CCCOc2ccc(Br)cc2Cl)C1=O			1.15
COc1ccc(CN2CCCCC2C)c(C)c1C (configuration not stated)		1.16 µM [falling, full curve]	-20.6
C/C(Cc1ccccc1)=N\NC(=O)CNC(=O)c1ccc(Br)cc1	0.231 µM [falling, full curve, poor fit]	0.00461 µM [falling, full curve, poor fit]	-41.1
OCc1cn(-c2ccccc2)nc1-c1ccc(-c2nn(-c3ccccc3)cc2CO)cc1			-0.065
O=C(NNS(=O)(=O)c1ccc2ccccc2c1)C1CCN(Cc2ccccc2)CC1	0.731 µM [rising, full curve, poor fit]	23.1 µM [rising, single point]	29
c1csc(-c2nn3c(C4COc5ccccc5O4)nnc3s2)c1 (configuration not stated)		1.3 µM [rising, partial curve]	
O=C(OCCN(C1=NS(=O)(=O)c2ccccc21)c1ccccc1Cl)c1ccc(Cl)cc1	16.4 µM [rising, partial curve]	5.17 µM [rising, full curve]	58.9
O=C(c1cccc(COc2ccc(Cl)cc2Cl)c1)N1CCN(c2ccccn2)CC1		0.651 µM [rising, full curve]	
CC(C)(C)n1cnnc1Sc1ncccc1[N+](=O)[O-]		1.84 µM [falling, partial curve]	-13.9
CNC(=S)Nc1ccc(N2CCN(c3ccc(C(F)(F)F)cn3)CC2)nc1	29.1 µM [falling, single point]		-43
O=C(N/N=C/c1ccccc1C(=O)O)c1ccncc1		0.326 µM [rising, partial curve, poor fit]	5.18
Cc1ccc(C(=O)NCC(=O)OCC(=O)c2ccc3c(c2)NC(=O)CO3)cc1C	3.26 µM [rising, full curve]		54.8

Structure (SMILES)	AC50 [1]	AC50 [2]	cell number change [%]
COCCSc1nnc(NC(=O)C2CCCO2)s1 (configuration not stated)		0.92 µM [falling, full curve, poor fit]	9.81
O=S(=O)(c1ccccc1F)N1CCc2ccccc2C1			-0.702
Cc1cc(C(F)F)n2nc(C(=O)O)nc2n1		0.00461 µM [falling, full curve, poor fit]	-14.5
COc1ccc(S(=O)(=O)Nc2c(O)c3ccccc3oc2=O)cc1			-10.3
COc1ccc(-c2nc(-c3ccncc3)no2)cc1OC			26
O=c1[nH]c(=O)n(Cc2ccccc2)c2nc(-c3ccc(Oc4ccc(F)cc4)c([N+](=O)[O-])c3)n(CCO)c12	16.4 µM [falling, single point]	18.4 µM [falling, single point]	-46.4
CCCCCCn1c(N2CCC(C)CC2)nc2c1c(=O)[nH]c(=O)n2C	5.17 µM [falling, partial curve]		-35.5
COc1cc(/C=N/NC(=S)NC2CC3CC2C2C=CCC32)ccc1O (configuration not stated)		18.4 µM [falling, single point]	-16.9
COc1ccc(C2C(C(=O)c3ccc(C)o3)=C(O)C(=O)N2CC2CCCO2)cc1OC (configuration not stated)		0.164 µM [rising, full curve]	-4.91
COc1ccc(OC)c(S(=O)(=O)N2CCC(C(=O)N3CCN(c4ccc(F)cc4)CC3)CC2)c1			-10.1
CSc1ccccc1C(=O)Nc1cc2c(cc1C(=O)O)OCCCO2			-19.7
CCn1c(=O)c(C2=NS(=O)(=O)c3ccccc3N2)c(O)c2ccccc21			-9.24
Cc1c(C(C)(C)O)[nH]c2ccc(C#N)cc12		0.164 µM [falling, partial curve, poor fit]	-15.6
O=C(Nc1ccc2c(c1)CCC2)c1cccc(S(=O)(=O)N2CCN(c3ccccc3)CC2)c1	2.59 µM [rising, full curve]	3.66 µM [rising, full curve]	82.2
Cc1cc(C)n(C(=O)CNC(=O)COc2ccccc2)n1			5.85
Clc1ccc(-c2csc3ncnc(Cl)c23)cc1			18.4
COc1cccc(/C=C2/CN(C)CC3=C2OC(N)=C(C#N)C3c2cccc(OC)c2)c1 (configuration not stated)	14.6 µM [falling, partial curve, poor fit]	14.6 µM [falling, partial curve, poor fit]	-37.4
Cc1cc(C)c([N+](=O)[O-])cc1NC(=O)CCSc1ccccc1Cl		0.146 µM [rising, full curve, poor fit]	5.73
COc1cccc(/C=N/n2c(-c3n[nH]c4c3CCC4)n[nH]c2=S)c1OC		4.61 µM [rising, single point]	
CCOC(=O)C1(Cc2cccc(F)c2)CCN(Cc2ccc(COC)o2)CC1			18

Fetched one by one from above (2):
Structure (SMILES)	AC50 [1]	AC50 [2]	cell number change [%]
Cc1cccc(C(=O)NCCNC(=O)c2cccc(C)c2)c1	7.31 µM [rising, partial curve, poor fit]		13.6
COc1cc(/C=N/NC(=S)NC2CC3CC2C2C=CCC32)ccc1O (configuration not stated)		18.4 µM [falling, single point]	-16.9
